{"source": "patent US20040198810A1", "about": "(H. Lundbeck A/S, priority 2001, published 2004)", "test_system": "primary care patients with major depression disorder", "assay": "8-week, double-blind, randomised, placebo-controlled, flexible-dose clinical study", "assay_type": "in vivo", "details": "Week 4, last observation carried forward", "from_the_text": "This has i.a. been found in the Chronic Mild Stress model (Willner P., Psychopharmachology 1997, 134, 319-329).\nA total of 471 patients were randomised into the study. The all-patient-treated set comprised 469 patients and the full-analysis set comprised 468 patients.\nThere was an approximately 3 to 1 ratio of women to men in each treatment group, and almost all patients were Caucasian. The mean age was 43 years (SD 11). At baseline, the mean MADRS total score was approximately 29 for the treatment group, which signifies moderate to severely ill patients.", "note": "For at least one compound, name, drawing or mass did not settle the structure.", "data": [{"smiles": "CN(C)CCCC1(c2ccc(F)cc2)OCc2cc(C#N)ccc21", "note": "(racemic) [citalopram, reference compound]", "values": [{"measurement": "significance of adjusted mean change in MADRS total score versus placebo", "result": "statistically insignificant change"}]}]}
